Measurements as given in PubChem BioAssay AID1508636 (National Center for Advancing Translational Sciences (NCATS), 2021).
The shares of active, inactive and inconclusive entries below differ from those in the screen. Potencies beside an inconclusive call are fits to weak or partial responses and may not hold up. Active and inactive are the calls of the source. Calls come from the whole dose curve; as a rule, active = well fitted inhibition curve with a large enough effect; inconclusive = small, poorly fitted or top-dose-only effect; inactive = flat fitted curve, though single readings scatter.

The chains behind the UniProt entries cited, without tags or fusion partners.
UniProt P08183, whole entry, looked up: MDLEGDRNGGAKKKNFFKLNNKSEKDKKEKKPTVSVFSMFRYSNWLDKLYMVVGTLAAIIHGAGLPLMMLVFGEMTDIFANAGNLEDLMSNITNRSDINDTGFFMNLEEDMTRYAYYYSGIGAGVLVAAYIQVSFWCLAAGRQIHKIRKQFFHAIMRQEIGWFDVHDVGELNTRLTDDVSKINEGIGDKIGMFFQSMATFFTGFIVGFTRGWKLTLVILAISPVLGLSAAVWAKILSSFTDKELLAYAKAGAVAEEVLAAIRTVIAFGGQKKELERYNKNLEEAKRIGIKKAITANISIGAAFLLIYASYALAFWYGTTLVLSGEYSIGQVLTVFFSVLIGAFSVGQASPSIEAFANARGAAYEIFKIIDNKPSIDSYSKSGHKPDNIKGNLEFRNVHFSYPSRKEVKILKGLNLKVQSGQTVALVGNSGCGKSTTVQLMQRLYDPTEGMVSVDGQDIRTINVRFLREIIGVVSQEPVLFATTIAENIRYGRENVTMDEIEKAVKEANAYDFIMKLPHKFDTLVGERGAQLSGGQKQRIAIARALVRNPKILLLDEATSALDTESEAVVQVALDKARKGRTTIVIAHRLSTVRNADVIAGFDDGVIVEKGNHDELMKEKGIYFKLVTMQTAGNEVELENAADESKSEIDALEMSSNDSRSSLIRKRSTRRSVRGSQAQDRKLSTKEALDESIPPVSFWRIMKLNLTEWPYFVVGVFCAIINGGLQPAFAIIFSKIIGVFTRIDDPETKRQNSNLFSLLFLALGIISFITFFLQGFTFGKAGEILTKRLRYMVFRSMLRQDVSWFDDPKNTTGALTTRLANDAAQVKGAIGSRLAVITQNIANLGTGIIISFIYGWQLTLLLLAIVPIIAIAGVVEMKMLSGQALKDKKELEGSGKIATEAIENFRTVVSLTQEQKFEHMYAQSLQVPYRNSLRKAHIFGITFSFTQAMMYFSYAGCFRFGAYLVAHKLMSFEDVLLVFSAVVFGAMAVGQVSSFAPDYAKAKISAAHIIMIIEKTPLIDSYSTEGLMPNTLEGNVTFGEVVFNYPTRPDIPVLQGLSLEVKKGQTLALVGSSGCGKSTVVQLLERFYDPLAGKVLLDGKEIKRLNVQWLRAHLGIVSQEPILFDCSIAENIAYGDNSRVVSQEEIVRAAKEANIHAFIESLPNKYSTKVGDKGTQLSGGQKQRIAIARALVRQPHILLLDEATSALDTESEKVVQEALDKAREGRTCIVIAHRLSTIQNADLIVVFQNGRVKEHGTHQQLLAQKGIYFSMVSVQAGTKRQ

What follows are compounds tested against ATP-dependent translocase ABCB1 (Homo sapiens) (UniProt P08183) (assay: qHTS for characterization and localization of zebrafish homologs of the human ABCB1 multidrug transporter: P-gp overexpressing MDR-19 cells). Settings: MDR-19 cells overexpressing P-gp, CellTiter-Glo luminescence viability, 72 h; series mostly up to 46.1 µM; activity change, negative = inhibition: at the top concentration.
Outline: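 About 90 known P-gp substrates were titrated onto four cell lines: vector control, MDR-19 (human P-gp) and zebrafish Abcb4 or Abcb5 transfectants. After 72 h, ATP luminescence (CellTiter-Glo) gave curves; cytotoxic required AC50 < 10 uM, >50% response and inhibitory curve class.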

Structure (SMILES)	activity change, negative = inhibition	Potency
CCc1cccc(CC)c1NC(=O)N1Cc2[nH]nc(NC(=O)c3ccc(N4CCN(C)CC4)cc3)c2C1	inactive: 3.47%	
Cn1cc(-c2[nH]c3cc(NC(=O)[C@H](N)C4CCCCC4)cc4c3c2C=NNC4=O)cn1		inconclusive: 16.6 µM [inhibitor, partial curve]
CCC(C)C(=O)OC1CC(O)C23C4OCC5(C(O)CC2C1(C)C(O)O4)C3C(=O)C(O)C1(C)C(O)(c2ccoc2)CC2OC251 (stereo unspecified)	inactive: 3.34% [at 15.2 µM]	
CN(C)CCN(C)C(=O)c1ccc(NC(=O)Nc2ccc(-c3nc(N4CCOCC4)c4ccn(CC(F)(F)F)c4n3)cc2)cc1		inconclusive: 23.5 µM [inhibitor, single point]
CC(=O)O[C@H]1C(=O)[C@@]2(C)C([C@H](OC(=O)c3ccccc3)[C@]3(O)C[C@H](OC(=O)[C@H](O)[C@@H](NC(=O)c4ccccc4)c4ccccc4)C(C)=C1C3(C)C)[C@]1(OC(C)=O)CO[C@@H]1C[C@@H]2O (stereo partly specified)		inconclusive: 1.18 µM [inhibitor, full curve]
COc1cc([C@@H]2c3cc4c(cc3[C@H](O)[C@H]3COC(=O)[C@H]23)OCO4)cc(OC)c1OC		inconclusive: 0.118 µM [inhibitor, full curve]

In a second layout: 2 of the compounds above
Structure (SMILES),"activity change, negative = inhibition",Potency
Cn1cc(-c2[nH]c3cc(NC(=O)[C@H](N)C4CCCCC4)cc4c3c2C=NNC4=O)cn1,,"inconclusive: 16.6 µM [inhibitor, partial curve]"
CCC(C)C(=O)OC1CC(O)C23C4OCC5(C(O)CC2C1(C)C(O)O4)C3C(=O)C(O)C1(C)C(O)(c2ccoc2)CC2OC251 (stereo unspecified),inactive: 3.34% [at 15.2 µM],
